Laboratory results published in patent publication US12428446B2 (Eyebio Korea, priority 2019, dated 2025).
Where no end group is shown, it is not given here. [ ]: non-standard residue; d: D form. Hyp = O=C(O)[C@@H]1C[C@@H](O)CN1; Aib = CC(C)(N)C(=O)O

Test: general procedure: Fmoc solid-phase peptide synthesis; 2-chlorotrityl resin; DIC/HOBt
Conditions: whole synthesis, scale 50 mmol

| Substance | crude mass | crude mass (run 1) |
| --- | --- | --- |
| DGLAGP | 18.87 g |  |
| DGLAGPK | 21.37 g |  |
| GLAGPK | 18.63 g |  |
| GQDGLA | 20.80 g |  |
| Hyp-Gly-Gln-Glu-Phenyl Gly-Leu-Ala | 23.91 g |  |
| Hyp-Gly-Gln-Glu-tert Leu-Leu-Ala | 20.35 g |  |
| LGLAGPK | 23.25 g |  |
| Leu-Ala-Gly-Pro-Lys (LAGPK) | 16.16 g |  |
| QDGLAG | 19.28 g |  |
| QDGLAGPK | 28.3 g |  |
| QLGLAGPK | 26.4 g |  |
| [Hyp]GLAGPK | 18.63 g |  |
| [Hyp]GQAG | 24.4 g |  |
| [Hyp]GQAGL | 11.82 g |  |
| [Hyp]GQAGLA | 20.2 g |  |
| [Hyp]GQAL | 13.57 g |  |
| [Hyp]GQALL | 12.44 g |  |
| [Hyp]GQAV | 11.94 g |  |
| [Hyp]GQAVL | 10.47 g |  |
| [Hyp]GQDA | 17.10 g |  |
| [Hyp]GQDAL | 22.12 g |  |
| [Hyp]GQDALA | 24.50 g |  |
| [Hyp]GQDG | 16.7 g |  |
| [Hyp]GQDGL | 21.1 g |  |
| [Hyp]GQDGLA | 24.4 g |  |
| [Hyp]GQDGLAG | 27.5 g |  |
| [Hyp]GQDGPK | 21.35 g |  |
| [Hyp]GQDL | 20.30 g |  |

| Substance | crude mass | crude mass (run 1) |
| --- | --- | --- |
| [Hyp]GQDLL | 22.48 g |  |
| [Hyp]GQDLLA | 24.80 g |  |
| [Hyp]GQDV | 23.25 g |  |
| [Hyp]GQDVL [Example 22] |  | 20.76 g |
| [Hyp]GQDVL [Example 34] |  | 20.62 g |
| [Hyp]GQDVLA | 20.76 g |  |
| [Hyp]GQDVLAG | 30.26 g |  |
| [Hyp]GQD[Aib] | 8.96 g |  |
| [Hyp]GQD[Aib]LA | 14.68 g |  |
| [Hyp]GQEL | 18.66 g |  |
| [Hyp]GQELL | 20.76 g |  |
| [Hyp]GQELLA | 15.41 g |  |
| [Hyp]GQEV | 19.74 g |  |
| [Hyp]GQEVL | 18.81 g |  |
| [Hyp]GQEVLA | 17.53 g |  |
| [Hyp]GQE[Aib]LA | 22.48 g |  |
| [Hyp]GQHGL | 20.64 g |  |
| [Hyp]GQLGLAG | 23.1 g |  |
| [Hyp]GQLL | 12.91 g |  |
| [Hyp]GQLLL | 20.26 g |  |
| [Hyp]GQLLLA | 22.60 g |  |
| [Hyp]GQLV | 15.41 g |  |
| [Hyp]GQLVL | 20.76 g |  |
| [Hyp]GQLVLA | 19.39 g |  |
| [Hyp]GQ[Aib]GL | 14.68 g |  |
| [Hyp]GQ[dD]L | 8.41 g |  |
| cis-4F-Pro-Gly-Gln-Asp-Gly | 15.91 g |  |
